Reference: PMC11551737, “Structural and functional insights into the interaction between the bacteriophage T4 DNA processing proteins gp32 and Dda” (Nucleic Acids Research, 2024)
Construct, isoform or probe ends are uncertain for at least one entry. A negative result means that nothing was seen under these conditions. A weaker result is weaker than the reference pair of the same experiment.

System: gp32 His-tagged + Dda-K38A
Experiment: gel filtration
Conditions: gel filtration: 20 mM Tris-HCl pH 7.0, 200 mM NaCl (50 mM for crystallization), 0.5 mM EDTA, 5 mM 2-mercaptoethanol, recombinant protein, protein details: N-terminal 6xHis,6xHis (stated for SPR), single-stranded DNA

Sequence | binding result (separate gp32 and Dda peaks, ternary complex not formed (binding of each protein alone not assessed)) | binding result (complex begins to appear)
TTTTTTTTTT [dT10] | no binding | –
TTTTTTTTTTTT [dT12] | – | binds more weakly
